Holding throughout (assay): DAPPL (digital affinity profiling via proximity ligation, sequencing)
Common to all, as to conditions: 10 mM Tris-HCl pH 7.5, 50 mM NaCl, 1 mM DTT, 4% glycerol, room temperature, 30 min; GST-TFs on glutathione beads, 16-mer random dsDNA library, 0.1% …; high values mean tight binding; double strand, one strand shown; scale: fold enrichment (6-mer frequency, TF over GST control)

The target of one test is T1, GABPA (UniProt Q06546).
T1 sequence: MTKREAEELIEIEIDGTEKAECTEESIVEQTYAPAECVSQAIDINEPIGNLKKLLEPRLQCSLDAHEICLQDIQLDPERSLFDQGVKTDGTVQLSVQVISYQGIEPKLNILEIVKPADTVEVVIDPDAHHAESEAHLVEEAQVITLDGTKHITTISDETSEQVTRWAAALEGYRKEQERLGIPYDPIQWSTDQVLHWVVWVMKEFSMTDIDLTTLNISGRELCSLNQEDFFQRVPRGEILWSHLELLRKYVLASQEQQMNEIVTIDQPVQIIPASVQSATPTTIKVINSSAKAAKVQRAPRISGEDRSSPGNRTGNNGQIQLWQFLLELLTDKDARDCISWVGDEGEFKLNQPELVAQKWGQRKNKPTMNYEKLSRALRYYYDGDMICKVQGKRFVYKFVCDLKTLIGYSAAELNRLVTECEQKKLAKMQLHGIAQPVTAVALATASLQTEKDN

In a further test the target is T2, ETS1 (UniProt P14921).
T2 sequence: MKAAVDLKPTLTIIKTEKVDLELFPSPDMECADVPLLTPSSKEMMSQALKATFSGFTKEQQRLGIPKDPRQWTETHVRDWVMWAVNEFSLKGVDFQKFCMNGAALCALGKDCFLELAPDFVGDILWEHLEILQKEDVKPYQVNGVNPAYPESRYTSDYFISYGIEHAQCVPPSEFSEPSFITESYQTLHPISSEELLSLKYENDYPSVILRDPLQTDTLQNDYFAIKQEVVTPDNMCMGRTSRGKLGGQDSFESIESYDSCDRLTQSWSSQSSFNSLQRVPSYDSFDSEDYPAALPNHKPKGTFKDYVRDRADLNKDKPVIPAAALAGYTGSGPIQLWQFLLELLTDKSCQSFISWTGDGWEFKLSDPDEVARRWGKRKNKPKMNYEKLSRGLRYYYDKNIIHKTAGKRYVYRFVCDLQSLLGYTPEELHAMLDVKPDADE

Another test has as its target T3, SPDEF (UniProt O95238).
T3 sequence: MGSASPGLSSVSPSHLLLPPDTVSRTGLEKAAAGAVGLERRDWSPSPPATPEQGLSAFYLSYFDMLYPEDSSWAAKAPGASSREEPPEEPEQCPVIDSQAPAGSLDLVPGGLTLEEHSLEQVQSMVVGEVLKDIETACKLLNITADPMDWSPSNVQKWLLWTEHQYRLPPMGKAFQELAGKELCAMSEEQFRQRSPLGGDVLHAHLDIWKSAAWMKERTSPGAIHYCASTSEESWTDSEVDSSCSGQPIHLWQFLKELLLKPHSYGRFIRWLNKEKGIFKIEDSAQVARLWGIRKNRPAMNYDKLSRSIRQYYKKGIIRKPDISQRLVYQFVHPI

The entries are a selection whose mix differs from that of the whole data set. For part of these data: At the low end of the ranking the order means little. Some of the results follow. For part of these data: The source does not settle which construct or isoform was used.

In the case of GGCGCC, the figures for the binding signal with GABPA, with ETS1 and with SPDEF were 0.74, 0.652 and 0.597, respectively.

CAGTAC: the binding signal in the test with GABPA came to 0.894; with ETS1, 0.788; with SPDEF, 0.777.

In the case of CAGAGC, the results for the binding signal with GABPA, in the test with ETS1 and in the test with SPDEF were 0.871, 0.84 and 0.836, respectively.

As to GCGAGG, the binding signal with GABPA came to 0.602; with ETS1, 0.605; with SPDEF, 0.627.

For the sequence AAAGTG, the binding signal with GABPA came out at 0.916; with ETS1, 0.836; with SPDEF, 0.937.

For the sequence GGTGAT, the figures for the binding signal with GABPA, with ETS1 and with SPDEF were 0.771, 0.819 and 0.819, respectively.

For the sequence GATAGA, the binding signal with GABPA came to 0.804; with ETS1, 0.779; with SPDEF, 0.83.

Take GGCGGC: the binding signal with GABPA came out at 0.551; in the test with ETS1 it was 0.625; with SPDEF it was 0.437.

GTAAGG: the binding signal was determined as 0.705 with GABPA, 0.725 with ETS1 and 0.742 with SPDEF.

Turning to ACCGGG, the values for the binding signal with GABPA, with ETS1 and in the test with SPDEF were 0.518, 0.476 and 0.65, respectively.

Take AGCCGC: the binding signal stood at 0.79 with GABPA, 0.793 in the test with ETS1 and 0.814 in the test with SPDEF.

Take CGTGTA: the figures for the binding signal with GABPA, in the test with ETS1 and in the test with SPDEF were 0.635, 0.681 and 0.721, respectively.

Regarding AGGGAC, the binding signal with GABPA turned out to be 0.744; with ETS1, 0.795; in the test with SPDEF, 0.799.

For the sequence TTGGAC, the binding signal worked out at 0.922 with GABPA, 0.873 in the test with ETS1 and 0.902 in the test with SPDEF.

In the case of ATCCAG, the binding signal in the test with GABPA was 0.876; with ETS1, 0.868; in the test with SPDEF it was 0.786.

For GTTGGG, the results for the binding signal with GABPA, with ETS1 and with SPDEF were 0.641, 0.698 and 0.657, respectively.

Regarding GGAGCT, the values for the binding signal with GABPA, in the test with ETS1 and in the test with SPDEF were 0.596, 0.607 and 0.594, respectively.

Turning to AGCCTG, the binding signal with GABPA amounted to 0.893; in the test with ETS1, 0.92; in the test with SPDEF, 0.813.

For the sequence GGCAAA, the binding signal in the test with GABPA is 0.91; in the test with ETS1 it was 0.907; in the test with SPDEF, 0.94.

On to CGGTCG, for which the binding signal amounted to 0.404 with GABPA, 0.386 in the test with ETS1 and 0.384 in the test with SPDEF.

For GACTAA, the binding signal in the test with GABPA is 0.917; with ETS1, 0.849; with SPDEF, 0.912.

CAACGT: the binding signal in the test with GABPA is 0.857; with ETS1, 0.893; with SPDEF it was 0.841.

As to ATGGAG, the binding signal with GABPA amounted to 0.518; with ETS1 it was 0.533; with SPDEF, 0.513.

AGACTA: the results for the binding signal with GABPA, with ETS1 and in the test with SPDEF were 0.768, 0.74 and 0.74, respectively.

As for CAGTGA, the binding signal was determined as 0.364 in the test with GABPA, 0.39 in the test with ETS1 and 0.373 with SPDEF.

Turning to CGGTAG, the results for the binding signal with GABPA, in the test with ETS1 and with SPDEF were 0.599, 0.635 and 0.706, respectively.

For the sequence TCGGCC, the binding signal was 0.724 with GABPA, 0.749 in the test with ETS1 and 0.69 with SPDEF.

For the sequence TGAGAC, the results for the binding signal with GABPA, with ETS1 and with SPDEF were 0.545, 0.551 and 0.525, respectively.

Turning to CGCCAG, the binding signal came out at 0.662 with GABPA, 0.646 in the test with ETS1 and 0.691 in the test with SPDEF.

Regarding AGGGCG, the binding signal with GABPA was found to be 0.568; with ETS1 it was 0.518; with SPDEF, 0.58.

On to GCGCTG, for which the binding signal stood at 0.775 in the test with GABPA, 0.874 in the test with ETS1 and 0.746 with SPDEF.

As to AGTCTG, the binding signal with GABPA was 0.624; in the test with ETS1 it was 0.657; with SPDEF it was 0.575.

As to GAGGCC, the binding signal in the test with GABPA was 0.486; with ETS1 it was 0.429; with SPDEF it was 0.398.

As to CGAGTC, the binding signal was determined as 0.518 with GABPA, 0.501 with ETS1 and 0.514 with SPDEF.

As for CAGCGA, the figures for the binding signal in the test with GABPA, in the test with ETS1 and with SPDEF were 0.811, 0.934 and 0.861, respectively.

With ACGAGT, the values for the binding signal in the test with GABPA, with ETS1 and in the test with SPDEF were 0.78, 0.823 and 0.72, respectively.

Turning to GGAGAA, the values for the binding signal in the test with GABPA, with ETS1 and in the test with SPDEF were 0.355, 0.34 and 0.307, respectively.

Consider GCATTG, for which the figures for the binding signal in the test with GABPA, with ETS1 and with SPDEF were 0.82, 0.774 and 0.688, respectively.

In the case of GGGAAG, the results for the binding signal in the test with GABPA, in the test with ETS1 and with SPDEF were 0.808, 0.857 and 0.73, respectively.

With CATGAG, the values for the binding signal with GABPA, with ETS1 and in the test with SPDEF were 0.709, 0.657 and 0.654, respectively.

For CCTAGT, the binding signal is 0.949 in the test with GABPA, 0.953 with ETS1 and 0.951 with SPDEF.

Turning to TGTGTC, the binding signal with GABPA is 0.686; with ETS1, 0.751; with SPDEF, 0.843.

On to GAGTTC, for which the binding signal in the test with GABPA worked out at 0.743; with ETS1 it was 0.729; with SPDEF, 0.782.

As to GTCCAG, the binding signal with GABPA came out at 0.638; in the test with ETS1, 0.603; with SPDEF, 0.637.

In the case of CCCGAG, the binding signal with GABPA worked out at 0.896; with ETS1, 0.783; with SPDEF, 0.766.

With GTGTGG, the binding signal in the test with GABPA turned out to be 0.689; in the test with ETS1, 0.59; in the test with SPDEF it was 0.631.

Turning to AGCCAA, the figures for the binding signal with GABPA, in the test with ETS1 and with SPDEF were 0.839, 0.89 and 0.802, respectively.

As for AGCTGG, the results for the binding signal with GABPA, with ETS1 and in the test with SPDEF were 0.862, 0.889 and 0.786, respectively.

For the sequence ATCGGT, the binding signal came to 0.692 with GABPA, 0.722 in the test with ETS1 and 0.64 with SPDEF.

AGCCGG: the values for the binding signal with GABPA, in the test with ETS1 and with SPDEF were 0.559, 0.541 and 0.667, respectively.

CGGGGC: the binding signal with GABPA stood at 0.639; with ETS1 it was 0.638; with SPDEF, 0.67.

As to TAGAGC, the figures for the binding signal with GABPA, with ETS1 and with SPDEF were 0.799, 0.74 and 0.845, respectively.

Turning to CTGGGA, the values for the binding signal with GABPA, in the test with ETS1 and with SPDEF were 0.86, 0.828 and 0.795, respectively.

As to GTGGGC, the binding signal in the test with GABPA came to 0.675; with ETS1 it was 0.686; with SPDEF it was 0.71.

In the case of GAGCGA, the results for the binding signal with GABPA, with ETS1 and in the test with SPDEF were 0.593, 0.629 and 0.627, respectively.

As for GGCATG, the binding signal with GABPA was determined as 0.887; with ETS1, 0.811; in the test with SPDEF, 0.765.

Regarding TCGGTG, the binding signal is 0.518 in the test with GABPA, 0.485 with ETS1 and 0.496 with SPDEF.

On to GCCAGG, for which the binding signal with GABPA stood at 0.468; with ETS1, 0.446; with SPDEF, 0.416.

As for CGGGCG, the binding signal in the test with GABPA stood at 0.434; in the test with ETS1 it was 0.366; in the test with SPDEF, 0.464.

In the case of GTCGAG, the results for the binding signal in the test with GABPA, with ETS1 and with SPDEF were 0.459, 0.447 and 0.451, respectively.

For the origin of these results see PMC7862700.
